Measurements as given in article PMC8389195.

Sequences of proteins named here, by UniProt entry; tags and fusion partners are left off. A change or cut given only in a name is not applied to a line headed by its entry.
UniProt P93835: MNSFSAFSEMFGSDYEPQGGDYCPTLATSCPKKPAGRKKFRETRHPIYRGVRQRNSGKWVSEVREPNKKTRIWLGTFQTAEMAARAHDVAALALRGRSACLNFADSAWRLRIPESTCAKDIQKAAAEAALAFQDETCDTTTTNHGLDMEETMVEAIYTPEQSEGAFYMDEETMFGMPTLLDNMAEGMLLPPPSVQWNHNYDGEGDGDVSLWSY

Biological target: MBP-CBF1 (Arabidopsis thaliana) (UniProt P93835)
Assay: EMSA
Details: without Trx-h2 or Trx-h2(G/A); EMSA kit (Thermo Fisher), poly(dI-dC) binding buffer, NADPH/Trx reductase/Trx-h2 system, 6% polyacrylamide gel; proteins dialyzed in 20 mM HEPES-NaOH pH 8.0; recombinant protein; residues 1-213; protein details: MBP (N-terminal, pMAL vector)

ATTTCATGGCCGACCTGCTTTTT (double strand) [COR15a promoter CRT/DRE probe]
binding result: binds more weakly

The exact form of at least one protein or probe is not confirmed. The comparison behind a weaker result is the experiment's own reference, which may not be listed here. At least one verdict was read from the data and is not stated in words by the source.
